Data from PubChem BioAssay AID256 (DTP/NCI, 2004).
The list is a part of this screen's results and no random one: it is rich in T/C values a quarter to a half above the control, in often repeated tests (any T/C) and in doses without a T/C. Further doses and runs are listed elsewhere. T/C: endpoint of the treated group in % of that of the vehicle group. Some doses have a count of surviving animals in place of a T/C: the source files T/C as zero there, which appears to mark a toxic dose or a test without result, not a measured value. Some doses without a T/C left all or most animals alive at the check, yet need not have been tolerated: the source hardly ever lists a survival T/C far under the control, and the zero likely stands for such cases as well. Survivors were counted at the toxicity check, usually on the fifth day, unless a day is given; later deaths do not show. Schedules are NCI's codes, taken here to give the interval after Q, in days (D) or hours (H), and the number of doses after X. Some doses were run more than once; the values are given in rising order. For survival time, this PubChem deposit counts one and a half times the control or more as active, and values a quarter to a half above the control carry no call in these data; other NCI protocols may use other cut-offs. Counts like (3×) count equal records among those shown. Some T/C values are followed by the survivors on the day toxicity was checked, most often the fifth; where none is given, no animal had died by that day.

Tested on: CD2F1 mice, L1210 leukemia ip, survival T/C
Experiment: NCI In Vivo Anticancer Drug Screen. Data for tumor model L1210 Leukemia (intraperitoneal) in CD2F1 (CDF1) mice
Conditions: higher T/C = longer survival
Summary of the method: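 Tumor-bearing mice (transplanted tumor) were split into treated and vehicle control groups, and the measured endpoint of each treated group was divided by that of its vehicle controls.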

[1] = T/C endpoint: mean survival time, dose: 100.0 mg/kg/injection, schedule: Q01DX009 (ip), vehicle: suspension in saline
[2] = T/C endpoint: median survival time, dose: 100.0 mg/kg/injection, schedule: Q01DX001 (ip), vehicle: saline
[3] = T/C endpoint: mean survival time, dose: 75.0 mg/kg/injection, schedule: Q01DX001 (ip), vehicle: saline
[4] = T/C endpoint: mean survival time, dose: 150.0 mg/kg/injection, schedule: Q01DX001 (ip), vehicle: saline
[5] = T/C endpoint: mean survival time, dose: 300.0 mg/kg/injection, schedule: Q01DX001 (ip), vehicle: saline

O=c1n(CC2CO2)c(=O)n(CC2CO2)c(=O)n1CC1CO1 (centres undefined)
T/C (T/C endpoint: mean survival time, dose: 5.0 mg/kg/injection, schedule: Q01DX009 (ip), vehicle: saline): 125 % of control
T/C (T/C endpoint: mean survival time, dose: 6.25 mg/kg/injection, schedule: Q01DX009 (ip), vehicle: saline with Tween-80): 128 and 139 % of control
T/C (T/C endpoint: mean survival time, dose: 6.25 mg/kg/injection, schedule: Q01DX009 (ip), vehicle: saline): 127 % of control
T/C (T/C endpoint: mean survival time, dose: 10.0 mg/kg/injection, schedule: Q01DX009 (ip), vehicle: saline): 134 % of control
T/C (T/C endpoint: mean survival time, dose: 12.5 mg/kg/injection, schedule: Q01DX009 (ip), vehicle: saline, evaluated on day 30): 128, 130, 143 % of control
T/C (T/C endpoint: mean survival time, dose: 12.5 mg/kg/injection, schedule: Q01DX009 (ip), vehicle: saline, evaluated on day 60): 148 % of control
T/C (T/C endpoint: mean survival time, dose: 12.5 mg/kg/injection, schedule: Q01DX009 (ip), vehicle: suspension in saline): 127 and 128 % of control
T/C (T/C endpoint: mean survival time, dose: 12.5 mg/kg/injection, schedule: Q04DX003 (ip), vehicle: saline): 130 % of control
T/C (T/C endpoint: mean survival time, dose: 25.0 mg/kg/injection, schedule: Q01DX009 (ip), vehicle: saline): 138, 140, 143 % of control
T/C (T/C endpoint: mean survival time, dose: 25.0 mg/kg/injection, schedule: Q04DX005 (ip), vehicle: saline): 140 % of control
T/C (T/C endpoint: mean survival time, dose: 50.0 mg/kg/injection, schedule: Q01DX009 (ip), vehicle: saline, evaluated on day 30): 110, 118, 138, 297 % of control
T/C (T/C endpoint: mean survival time, dose: 50.0 mg/kg/injection, schedule: Q01DX009 (ip), vehicle: saline, evaluated on day 60): 101 % of control
T/C (T/C endpoint: mean survival time, dose: 70.0 mg/kg/injection, schedule: Q01DX001 (ip), vehicle: saline): 146 % of control
survivor count (T/C endpoint: mean survival time, dose: 75.0 mg/kg/injection, schedule: Q01DX009 (ip), vehicle: saline): 6 of 6
survivor count (T/C endpoint: mean survival time, dose: 100.0 mg/kg/injection, schedule: Q01DX009 (ip), vehicle: saline with Tween-80): 6 of 6
T/C [1]: 146 % of control
survivor count [1]: 4 of 6
T/C (T/C endpoint: mean survival time, dose: 100.0 mg/kg/injection, schedule: Q04DX005 (ip), vehicle: saline): 146 % of control
T/C (T/C endpoint: mean survival time, dose: 150.0 mg/kg/injection, schedule: Q01DX009 (ip), vehicle: saline): 147 and 148 % of control
survivor count (T/C endpoint: mean survival time, dose: 200.0 mg/kg/injection, schedule: Q01DX009 (ip), vehicle: saline with Tween-80): 0 of 6 and 3 of 6
survivor count (T/C endpoint: mean survival time, dose: 200.0 mg/kg/injection, schedule: Q01DX009 (ip), vehicle: suspension in saline): 0 of 6 and 4 of 6
survivor count (T/C endpoint: mean survival time, dose: 400.0 mg/kg/injection, schedule: Q01DX009 (ip), vehicle: saline): 3 of 6
T/C (T/C endpoint: median survival time, dose: 5.0 mg/kg/injection, schedule: Q01DX009 (ip), vehicle: saline): 127 % of control
T/C (T/C endpoint: median survival time, dose: 10.0 mg/kg/injection, schedule: Q01DX009 (ip), vehicle: saline): 141 % of control
T/C (T/C endpoint: median survival time, dose: 25.0 mg/kg/injection, schedule: Q01DX001 (ip), vehicle: saline): 140 % of control
T/C (T/C endpoint: median survival time, dose: 25.0 mg/kg/injection, schedule: Q01DX005 (iv), vehicle: saline): 134 % of control
survivor count (T/C endpoint: median survival time, dose: 30.0 mg/kg/injection, schedule: Q03HX008 (ip), vehicle: saline): 7 of 10
survivor count (T/C endpoint: median survival time, dose: 30.0 mg/kg/injection, schedule: Q03HX016 (ip), vehicle: saline): 7 of 10
survivor count (T/C endpoint: median survival time, dose: 30.0 mg/kg/injection, schedule: Q03HX024 (ip), vehicle: saline): 8 of 10
T/C (T/C endpoint: median survival time, dose: 35.0 mg/kg/injection, schedule: Q03HX024 (ip), vehicle: saline): 128 % of control
survivor count (T/C endpoint: median survival time, dose: 40.0 mg/kg/injection, schedule: Q03HX008 (ip), vehicle: saline): 2 of 10
survivor count (T/C endpoint: median survival time, dose: 40.0 mg/kg/injection, schedule: Q03HX016 (ip), vehicle: saline): 5 of 10
T/C (T/C endpoint: median survival time, dose: 50.0 mg/kg/injection, schedule: Q01DX001 (iv), vehicle: saline): 133 % of control
survivor count (T/C endpoint: median survival time, dose: 50.0 mg/kg/injection, schedule: Q01DX005 (ip), vehicle: saline): 8 of 8
survivor count (T/C endpoint: median survival time, dose: 50.0 mg/kg/injection, schedule: Q01DX005 (iv), vehicle: saline): 8 of 8
T/C (T/C endpoint: median survival time, dose: 50.0 mg/kg/injection, schedule: Q01DX009 (oral), vehicle: saline): 140 % of control
T/C (T/C endpoint: median survival time, dose: 70.0 mg/kg/injection, schedule: Q01DX009 (ip), vehicle: saline): 135 % of control
T/C [2]: 140 % of control
survivor count [2]: 4 of 10
survivor count (T/C endpoint: median survival time, dose: 100.0 mg/kg/injection, schedule: Q01DX005 (ip), vehicle: saline): 2 of 8
survivor count (T/C endpoint: median survival time, dose: 100.0 mg/kg/injection, schedule: Q01DX005 (iv), vehicle: saline): 4 of 8
T/C (T/C endpoint: median survival time, dose: 100.0 mg/kg/injection, schedule: Q04DX003 (oral), vehicle: saline): 132 % of control
T/C (T/C endpoint: median survival time, dose: 100.0 mg/kg/injection, schedule: Q08DX002 (oral), vehicle: saline): 128 % of control
T/C (T/C endpoint: median survival time, dose: 150.0 mg/kg/injection, schedule: Q01DX001 (ip), vehicle: saline): 140 % of control
T/C (T/C endpoint: median survival time, dose: 150.0 mg/kg/injection, schedule: Q01DX009 (oral), vehicle: saline): 139 % of control
T/C (T/C endpoint: median survival time, dose: 150.0 mg/kg/injection, schedule: Q08DX002 (ip), vehicle: saline): 127 % of control
survivor count (T/C endpoint: median survival time, dose: 200.0 mg/kg/injection, schedule: Q01DX001 (ip), vehicle: saline): 2 of 10
T/C (T/C endpoint: median survival time, dose: 200.0 mg/kg/injection, schedule: Q01DX001 (oral), vehicle: saline): 130 % of control
T/C (T/C endpoint: median survival time, dose: 200.0 mg/kg/injection, schedule: Q01DX005 (oral), vehicle: saline): 135 % of control
survivor count (T/C endpoint: median survival time, dose: 200.0 mg/kg/injection, schedule: Q04DX003 (ip), vehicle: saline): 2 of 10
survivor count (T/C endpoint: median survival time, dose: 200.0 mg/kg/injection, schedule: Q08DX002 (ip), vehicle: saline): 1 of 10
T/C (T/C endpoint: median survival time, dose: 250.0 mg/kg/injection, schedule: Q01DX001 (ip), vehicle: saline): 139 % of control
T/C (T/C endpoint: median survival time, dose: 250.0 mg/kg/injection, schedule: Q01DX005 (oral), vehicle: saline): 144 % of control [9 of 10 alive]
survivor count (T/C endpoint: median survival time, dose: 300.0 mg/kg/injection, schedule: Q01DX001 (ip), vehicle: saline): 0 of 10
T/C (T/C endpoint: median survival time, dose: 300.0 mg/kg/injection, schedule: Q01DX001 (oral), vehicle: saline): 148 % of control
T/C (T/C endpoint: median survival time, dose: 300.0 mg/kg/injection, schedule: Q01DX005 (oral), vehicle: saline): 139 % of control
survivor count (T/C endpoint: median survival time, dose: 300.0 mg/kg/injection, schedule: Q08DX002 (ip), vehicle: saline): 0 of 10
T/C (T/C endpoint: median survival time, dose: 400.0 mg/kg/injection, schedule: Q08DX002 (ip), vehicle: saline): 145 % of control
T/C (T/C endpoint: median survival time, dose: 450.0 mg/kg/injection, schedule: Q01DX001 (oral), vehicle: saline): 133 % of control
T/C (T/C endpoint: median survival time, dose: 500.0 mg/kg/injection, schedule: Q01DX001 (oral), vehicle: saline): 139 % of control

[Cl][Pt+2][Cl].[NH-]c1ccc(Cl)cc1[NH-]
T/C (T/C endpoint: mean survival time, dose: 5.0 mg/kg/injection, schedule: Q01DX009 (ip), vehicle: saline with Tween-80): 140 % of control
T/C (T/C endpoint: mean survival time, dose: 10.0 mg/kg/injection, schedule: Q01DX009 (ip), vehicle: saline with Tween-80): 140 % of control (2×)
survivor count (T/C endpoint: mean survival time, dose: 40.0 mg/kg/injection, schedule: Q01DX009 (ip), vehicle: saline with Tween-80): 8 of 8
survivor count (T/C endpoint: mean survival time, dose: 80.0 mg/kg/injection, schedule: Q01DX009 (ip), vehicle: saline with Tween-80): 7 of 8

O=S(=O)(O)O.[NH-]CC(=O)O.[NH-]CC(=O)O.[NH-]CC(=O)O.[NH-]CC(=O)O.[Pt+2].[Pt+2]
survivor count (T/C endpoint: mean survival time, dose: 100.0 mg/kg/injection, schedule: Q04DX003 (ip), vehicle: distilled water + Tween-80): 0 of 6
survivor count (T/C endpoint: mean survival time, dose: 200.0 mg/kg/injection, schedule: Q04DX003 (ip), vehicle: distilled water + Tween-80): 0 of 6

c1ccc(-c2csc3c4ccccc4c4ccccc4[n+]23)cc1
survivor count [3]: 0 of 6
survivor count [4]: 0 of 6
survivor count [5]: 0 of 6

CC[N+](C)(CC)c1cccc(OC(=O)NC)c1
survivor count [3]: 0 of 6
survivor count [4]: 0 of 6
survivor count [5]: 0 of 6

CN(C)C1(Cc2ccccc2)c2ccccc2-c2ccc(Br)cc21 (centres undefined)
survivor count (T/C endpoint: mean survival time, dose: 400.0 mg/kg/injection, schedule: Q04DX003 (ip), vehicle: saline with Tween-80): 6 of 6

CCCCCCCCCCCCOCCOCCOCCOCCO
survivor count (T/C endpoint: mean survival time, dose: 400.0 mg/kg/injection, schedule: Q04DX002 (ip), vehicle: saline with Tween-80): 1 of 3
